According to US20150147274A1 (CANCER RESEARCH TECHNOLOGY, published 2015):
No constants are given. Whether binding was seen depends on the method and setting. Some binding calls cover weakened binding; strength is not graded here. For some assays here: Sequences can lack the tags named with a protein.

Legend:
[1] = target: MET515-741 (deglycosylated pepsin fragment of hexahistidine tagged MET741) (human) (UniProt P08581); experiment: complex of MET741-6His and Fab, digested, purified on NiNTA and by gel filtration
[2] = target: MET928 (cMET protein derived from construct 25-928) (human) (UniProt P08581); experiment: ELISA, soluble scFv

| Binder | binding [1] | binding [2] |
| --- | --- | --- |
| 107_A07 Fab (tagless, native, i.e. not hinged) (Fab, V domains shown) VH: QMQLVQSGAEVKKPGAPVKVSCKVSGYTFTDYYMHWVQQAPGKGLEWMGLVDPEDGETIYAEKFQGRVTITADTSTDTAYMELSSLRSEDTAVYYCATDATTPYWGMMWWGQGTLVTVSS VL: DIQMTQSPSSLSASVGDRVTITCQASQDISNYLNWYQQKPGRAPKVLIYDASNLETGVPSRFSGSGSGTEFTLTISNLRPDDFATYYCQQGDSFPLTFGGGTKVEIKR | binds |  |
| 108_G4 (scFv, not shown: small tags and cut ends) scFv: QMQLVQSGAEVKKPGAPVKVSCKVSGYTFTDYYMHWVQQAPGKGLEWMGLVDPEDGETIYAEKFQGRVTITADTSTDTAYMELSSLRSEDTAVYYCATDATTPYWFPRFWGQGTLVTVSSLEGGGGSGGGGSGGGASDIQMTQSPSSLSASVGDRVTITCQASQDISNYLNWYQQKPGRAPKVLIYDASNLETGVPSRFSGSGSGTEFTLTISNLRPDDFATYYCQQGDSFPLTFGGGTKVEIK |  | binds |
| 110_B1 (scFv, not shown: small tags and cut ends) scFv: QMQLVQSGAEVKKPGAPVKVSCKVSGYTFTDYYMHWVQQAPGKGLEWMGLVDPEDGETIYAEKFQGRVTITADTSTDTAYMELSSLRSEDTAVYYCATDATTPYWGMBLWGQGTLVTVSSLEGGGGSGGGGSGGGASDIQMTQSPSSLSASVGDRVTITCQASQDISNYLNWYQQKPGRAPKVLIYDASNLETGVPSRFSGSGSGTEFTLTISNLRPDDFATYYCQQGDSFPLTFGGGTKVEIK |  | binds |

Continued, values first:

| binding [1] | binding [2] | Binder |
| --- | --- | --- |
|  | binds | 108_C9 (scFv, not shown: small tags and cut ends) scFv: QMQLVQSGAEVKKPGAPVKVSCKVSGYTFTDYYMHWVQQAPGKGLEWMGLVDPEDGETIYAEKFQGRVTITADTSTDTAYMELSSLRSEDTAVYYCATDATTPYWFPRBWGQGTLVTVSSLEGGGGSGGGGSGGGASDIQMTQSPSSLSASVGDRVTITCQASQDISNYLNWYQQKPGRAPKVLIYDASNLETGVPSRFSGSGSGTEFTLTISNLRPDDFATYYCQQGDSFPLTFGGGTKVEIK |
|  | binds | 110_84 (scFv, not shown: small tags and cut ends) scFv: QMQLVQSGAEVKKPGAPVKVSCKVSGYTFTDYYMHWVQQAPGKGLEWMGLVDPEDGETIYAEKFQGRVTITADTSTDTAYMELSSLRSEDTAVYYCATDATTPYWFPBTWGQGTLVTVSSLEGGGGSGGGGSGGGASDIQMTQSPSSLSASVGDRVTITCQASQDISNYLNWYQQKPGRAPKVLIYDASNLETGVPSRFSGSGSGTEFTLTISNLRPDDFATYYCQQGDSFPLTFGGGTKVEIK |
|  | binds | 110_B10 (scFv, not shown: small tags and cut ends) scFv: QMQLVQSGAEVKKPGAPVKVSCKVSGYTFTDYYMHWVQQAPGKGLEWMGLVDPEDGETIYAEKFQGRVTITADTSTDTAYMELSSLRSEDTAVYYCATDATTPYWGMBMWGQGTLVTVSSLEGGGGSGGGGSGGGASDIQMTQSPSSLSASVGDRVTITCQASQDISNYLNWYQQKPGRAPKVLIYDASNLETGVPSRFSGSGSGTEFTLTISNLRPDDFATYYCQQGDSFPLTFGGGTKVEIK |
|  | binds | 108_F1 (scFv, not shown: small tags and cut ends) scFv: QMQLVQSGAEVKKPGAPVKVSCKVSGYTFTDYYMHWVQQAPGKGLEWMGLVDPEDGETIYAEKFQGRVTITADTSTDTAYMELSSLRSEDTAVYYCATDATTPYWFPRFWGQGTLVTVSSLEGGGGSGGGGSGGGASDIQMTQSPSSLSASVGDRVTITCQASQDISNYLNWYQQKPGRAPKVLIYDASNLETGVPSRFSGSGSGTEFTLTISNLRPDDFATYYCQQGDSFPLTFGGGTKVEIK |
|  | binds | 109_G9 (scFv, not shown: small tags and cut ends) scFv: QMQLVQSGAEVKKPGAPVKVSCKVSGYTFTDYYMHWVQQAPGKGLEWMGLVDPEDGETIYAEKFQGRVTITADTSTDTAYMELSSLRSEDTAVYYCATDATTPYWGMQEWGQGTLVTVSSLEGGGGSGGGGSGGGASDIQMTQSPSSLSASVGDRVTITCQASQDISNYLNWYQQKPGRAPKVLIYDASNLETGVPSRFSGSGSGTEFTLTISNLRPDDFATYYCQQGDSFPLTFGGGTKVEIK |
